Our source for the binding values is publication PMC8418608.

No constants are given. Whether binding was seen depends on the method and setting. In cells and extracts the contact can be indirect. Here binding means that the protein was enriched with, or labelled near, the bait; the list need not be complete.

The experiment concerns the target T1, Lysine-specific methyltransferase Set7/9, Q8WTS6.
T1 chain: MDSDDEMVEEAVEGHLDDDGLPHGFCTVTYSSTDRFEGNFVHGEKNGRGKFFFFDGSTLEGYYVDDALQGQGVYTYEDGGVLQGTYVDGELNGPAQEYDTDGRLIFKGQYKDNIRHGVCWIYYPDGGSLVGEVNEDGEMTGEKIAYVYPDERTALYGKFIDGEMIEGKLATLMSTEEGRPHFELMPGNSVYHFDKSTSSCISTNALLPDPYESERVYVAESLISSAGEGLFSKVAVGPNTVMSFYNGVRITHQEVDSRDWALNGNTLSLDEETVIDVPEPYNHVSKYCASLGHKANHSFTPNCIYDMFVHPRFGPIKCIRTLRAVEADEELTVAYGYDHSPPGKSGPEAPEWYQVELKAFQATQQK
The experiment is described as follows: affinity purification with mass spectrometry; GST-pulldown assay coupled with LC-MS/MS mass-spectrometry to identify Set7/9 interacting proteins; no conditions given; only the target purified. As to conditions: remark: other sources report otherwise.

B1: HMBG1, P09429 1-215 (protein)
chain: MGKGDPKKPRGKMSSYAFFVQTCREEHKKKHPDASVNFSEFSKKCSERWKTMSAKEKGKFEDMAKADKARYEREMKTYIPPKGETKKKFKDPNAPKRPPSAFFLFCSEYRPKIKGEHPGLSIGDVAKKLGEMWNNTAADDKQPYEKKAAKLKEKYEKDIAAYRAKGKPDAAKKGVVKAEKSKKKKEEEEDEEDEEDEEEEEDEEDEDEEEDDDDE
On to B1, for which the binding entry is “binds”.
